Laboratory results: article PMC4118853, “Phage Orf Family Recombinases: Conservation of Activities and Involvement of the Central Channel in DNA Binding” (PLoS ONE, 2014)

Tests used:
[1] = molecular target: T1, MBP-YbcN (UniProt Q47269); experiment: EMSA; conditions: EMSA: 50 mM Tris-HCl pH 8.0, 5 mM EDTA (or 1 mM MgCl2), 1 mM DTT, 5% glycerol, 100 ug/ml BSA, on ice 15 min, 4% PAGE, recombinant protein, protein details: N-terminal MBP
T1 sequence (looked up, limits assumed): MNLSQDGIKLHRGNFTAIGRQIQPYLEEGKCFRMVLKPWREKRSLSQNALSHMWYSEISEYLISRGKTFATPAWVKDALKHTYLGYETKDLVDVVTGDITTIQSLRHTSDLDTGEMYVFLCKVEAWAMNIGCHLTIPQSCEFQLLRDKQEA

[2] = molecular target: T2, MBP-Orf (Bacteriophage lambda) (UniProt P03765); experiment: EMSA; conditions: EMSA: 50 mM Tris-HCl pH 8.0, 5 mM EDTA (or 1 mM MgCl2), 1 mM DTT, 5% glycerol, 100 ug/ml BSA, on ice 15 min, 4% PAGE, recombinant protein, residues 1-146, protein details: N-terminal MBP
T2 sequence (looked up): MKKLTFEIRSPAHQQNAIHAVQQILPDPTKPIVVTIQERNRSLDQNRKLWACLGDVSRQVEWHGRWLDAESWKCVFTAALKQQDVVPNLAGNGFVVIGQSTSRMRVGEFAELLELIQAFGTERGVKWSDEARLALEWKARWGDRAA

[3] = molecular target: T3, MBP-Orf K48A (Bacteriophage lambda) (UniProt P03765); experiment: EMSA; conditions: EMSA: 50 mM Tris-HCl pH 8.0, 5 mM EDTA (or 1 mM MgCl2), 1 mM DTT, 5% glycerol, 100 ug/ml BSA, on ice 15 min, 4% PAGE, recombinant protein, residues 1-146, protein details: N-terminal MBP
T3 sequence (looked up): T2 sequence (looked up) with K48A

[4] = molecular target: T4, MBP-Orf V106E (Bacteriophage lambda) (UniProt P03765); experiment: EMSA; conditions: EMSA: 50 mM Tris-HCl pH 8.0, 5 mM EDTA (or 1 mM MgCl2), 1 mM DTT, 5% glycerol, 100 ug/ml BSA, on ice 15 min, 4% PAGE, recombinant protein, residues 1-146, protein details: N-terminal MBP
T4 sequence (looked up): T2 sequence (looked up) with V106E

[5] = molecular target: T5, MBP-Orf R103E (Bacteriophage lambda) (UniProt P03765); experiment: EMSA; conditions: 250 nM, EMSA: 50 mM Tris-HCl pH 8.0, 5 mM EDTA (or 1 mM MgCl2), 1 mM DTT, 5% glycerol, 100 ug/ml BSA, on ice 15 min, 4% PAGE, recombinant protein, residues 1-146, protein details: N-terminal MBP, label: 5'-32P on strand 1
T5 sequence (looked up): T2 sequence (looked up) with R103E

[6] = molecular target: T6, MBP-Orf W137A (Bacteriophage lambda) (UniProt P03765); experiment: EMSA; conditions: EMSA: 50 mM Tris-HCl pH 8.0, 5 mM EDTA (or 1 mM MgCl2), 1 mM DTT, 5% glycerol, 100 ug/ml BSA, on ice 15 min, recombinant protein, residues 1-146, protein details: N-terminal MBP
T6 sequence (looked up): T2 sequence (looked up) with W137A

[7] = molecular target: T7, MBP-Orf W50A (Bacteriophage lambda) (UniProt P03765); experiment: EMSA; conditions: EMSA: 50 mM Tris-HCl pH 8.0, 5 mM EDTA (or 1 mM MgCl2), 1 mM DTT, 5% glycerol, 100 ug/ml BSA, on ice 15 min, 4% PAGE, recombinant protein, residues 1-146, protein details: N-terminal MBP
T7 sequence (looked up): T2 sequence (looked up) with W50A

[8] = molecular target: T8, MBP-Orf Q45A (Bacteriophage lambda) (UniProt P03765); experiment: EMSA; conditions: EMSA: 50 mM Tris-HCl pH 8.0, 5 mM EDTA (or 1 mM MgCl2), 1 mM DTT, 5% glycerol, 100 ug/ml BSA, on ice 15 min, 4% PAGE, recombinant protein, residues 1-146, protein details: N-terminal MBP
T8 sequence (looked up): T2 sequence (looked up) with Q45A

[9] = molecular target: T1, MBP-YbcN; experiment: fluorescence anisotropy; conditions: no significant difference from duplex control; anisotropy: 100 mM Tris-HCl pH 7.0, 10 nM DNA, temperature not stated; recombinant protein; protein details: N-terminal MBP; label: 3'-fluorescein on strand 1
[10] = 5 mM EDTA, no preference over DS60, label: 5'-32P on strand 1, folded or branched DNA
[11] = 250 nM, little or no association, label: 5'-32P on strand 1
[12] = 5 mM EDTA, label: 5'-32P on strand 1
[13] = 5 mM EDTA, no marked improvement with bubble, label: 5'-32P on strand 1, folded or branched DNA
[14] = 250 nM, similarly poor binding, label: 5'-32P on strand 1, folded or branched DNA
[15] = 5 mM EDTA, severe defect, label: 5'-32P, single-stranded DNA
[16] = 1 mM MgCl2, label: 5'-32P, single-stranded DNA

## TTTGGTCTAACTTTACCGCTACTAAATGCCGCGGATTGGTTTCGCTGAATCAGGTTATTA / TAATAACCTGATTCAGCGAAACCAATCCAAGCGGCATTTAGTAGCGGTAAAGTTAGACCAAA [BT2]
[1]; [10]
  binding result: binds
[2]; [10]
  binding result: binds more weakly

## TTTGGTCTAACTTTACCGCTACTAAATGCCGCGGATTGGTTTCGCTGAATCAGGTTATTA / TAATAACCTGATTCAGCGAAACCAATCGGCGGCATTTAGTAGCGGTAAAGTTAGACCAAA [MMG:G]
[2]; 5 mM EDTA, same as DS60, label: 5'-32P on strand 1
  binding result: binds more weakly

## TTTGGTCTAACTTTACCGCTACTAAATGCCGCGGATTGGTTTCGCTGAATCAGGTTATTA / TAATAACCTGATTCAGCGAAACCAATCCAGCGGCATTTAGTAGCGGTAAAGTTAGACCAAA [BT1]
[1]; [10]
  binding result: binds
[2]; [10]
  binding result: binds more weakly

## TTTGGTCTAACTTTACCGCTACTAAATGCCGCGGATTGGTTTCGCTGAATCAGGTTATTA (double strand) [DS60]
[3]; [11]
  binding result: no binding
[4]; [11]
  binding result: no binding
[5]; little or no association
  binding result: no binding
[2]; [12]
  binding result: binds more weakly
[6]; 250 nM, less extreme defect, 4% PAGE, label: 5'-32P on strand 1
  binding result: binds more weakly
[7]; [11]
  binding result: no binding
[8]; 250 nM, less extreme defect, label: 5'-32P on strand 1
  binding result: binds more weakly

## GGCGACGTGATCACCAGATGATTGCTAGGCATGCTTTCCGCAAGAGAAGC (double strand) [DS50]
[1]; [12]
  binding result: binds more weakly
[2]; [12]
  binding result: binds more weakly

## TTTGGTCTAACTTTACCGCTACTAAATGCCGCGGATTGGTTTCGCTGAATCAGGTTATTA / TAATAACCTGATTCAGCGAAACCAATCGCAACCATTTAGTAGCGGTAAAGTTAGACCAAA [BB5]
[1]; [13]
  binding result: binds

## TTTGGTCTAACTTTACCGCTACTAAATGCCGCGGATTGGTTTCGCTGAATCAGGTTATTA / TAATAACCTGATTCAGCGAAACCAATCCAAAGCGGCATTTAGTAGCGGTAAAGTTAGACCAAA [BT3]
[1]; [10]
  binding result: binds
[2]; [10]
  binding result: binds more weakly

## TTTGGTCTAACTTTACCGCTACTAAATGCCGCGGATTGGTTTCGCTGAATCAGGTTATTA / TAATAACCTGATTCAGCGAAACCAATCTGCGGCATTTAGTAGCGGTAAAGTTAGACCAAA [MMT:G-fluorescein]
[9]
  binding result: binds

## TTTGGTCTAACTTTACCGCTACTAAATGCCGCGGATTGGTTTCGCTGAATCAGGTTATTA / TAATAACCTGATTCAGCGAATGACCGATAACGTCCACTTGAGCGGTAAAGTTAGACCAAA [BB20]
[3]; 250 nM, small proportion, faster-migrating complex, label: 5'-32P on strand 1, folded or branched DNA
  binding result: binds more weakly
[4]; [14]
  binding result: binds more weakly
[5]; similarly poor binding, folded or branched DNA
  binding result: binds more weakly
[1]; [13]
  binding result: binds
[6]; 250 nM, complex stability slightly reduced, 4% …, label: 5'-32P on strand 1, folded or branched DNA
  binding result: binds more weakly
[7]; [14]
  binding result: binds more weakly
[8]; 250 nM, complex stability significantly reduced, label: 5'-32P on strand 1, folded or branched DNA
  binding result: binds more weakly

## TTTGGTCTAACTTTACCGCTACTAAATGCCGCGGATTGGTTTCGCTGAATCAGGTTATTA / TAATAACCTGATTCAGCGAAACATTGTAGGTAAGCTTAGTAGCGGTAAAGTTAGACCAAA [BB13]
[1]; [13]
  binding result: binds

## GGCGACGTGATCACCAGATGATTGCTAGGCATGCTTTCCGCAAGAGAAGC [SS50]
[3]; [15]
  binding result: binds more weakly
[4]; [15]
  binding result: binds more weakly
[1]; [16]
  binding result: binds more weakly
[2]; [16]
  binding result: binds more weakly
[6]; 5 mM EDTA, slight reduction, 4% PAGE, label: 5'-32P, single-stranded DNA
  binding result: binds more weakly
[7]; 5 mM EDTA, bound only weakly, label: 5'-32P, single-stranded DNA
  binding result: binds more weakly
[8]; 5 mM EDTA, minor defect, label: 5'-32P, single-stranded DNA
  binding result: binds more weakly

Changes are numbered by the printed parent chain. For part of these data: A negative result means that nothing was seen under these conditions. Protein sequences can lack the tags named with them. For part of these data: Weaker means in comparison with the reference protein, sequence or condition of that experiment. For part of these data: The exact form of at least one protein or probe is not confirmed. For part of these data: At least one verdict rests on a figure or table, not on a statement of the authors.
